The assay deals with SUMO isopeptidase SENP3 (sentrin-specific protease 3) (human (endogenous in HeLa)) (UniProt Q9H4L4). In words: affinity purification with mass spectrometry; SILAC-labelled HeLa lysates (50 mM HEPES pH 7.5, 150 mM NaCl, 2 mM EDTA, 0.5% Triton X-100); anti-SENP3 IP (R6K4) against control rabbit IgG IP (R0K0), protein G dynabeads, mixed 1:1, SDS-PAGE, LC-MS/MS.

Amino acid sequences for entries named in this document (tags omitted).
UniProt Q9H4L4: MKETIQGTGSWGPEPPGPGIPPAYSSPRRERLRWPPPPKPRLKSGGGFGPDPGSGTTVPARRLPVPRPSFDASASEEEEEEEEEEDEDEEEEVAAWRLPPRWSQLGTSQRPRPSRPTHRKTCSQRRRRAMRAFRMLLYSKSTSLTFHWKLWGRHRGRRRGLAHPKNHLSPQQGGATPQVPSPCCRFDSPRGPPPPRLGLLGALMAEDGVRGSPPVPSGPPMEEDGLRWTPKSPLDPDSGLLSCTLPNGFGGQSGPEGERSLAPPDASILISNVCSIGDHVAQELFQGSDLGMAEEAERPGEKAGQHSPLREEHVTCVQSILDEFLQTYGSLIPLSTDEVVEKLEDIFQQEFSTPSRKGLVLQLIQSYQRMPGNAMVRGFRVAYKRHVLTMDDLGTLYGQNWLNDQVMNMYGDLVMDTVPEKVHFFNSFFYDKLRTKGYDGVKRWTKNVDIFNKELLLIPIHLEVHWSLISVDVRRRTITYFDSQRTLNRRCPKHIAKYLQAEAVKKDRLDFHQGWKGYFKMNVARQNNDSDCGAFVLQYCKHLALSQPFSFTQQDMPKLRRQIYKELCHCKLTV

Results are given in words; binding and its absence hold for the method and conditions named. In cells and extracts the contact can be indirect. These calls come from enrichment with a bait or labelling near it, and not all partners need be listed.

B1: LRRFIP1 (protein, UniProt Q32MZ4 1-808)
chain: MTSPAAAQSREIDCLSPEAQKLAEARLAAKRAARAEAREIRMKELERQQKEEDSERYSRRSRRNTSASDEDERMSVGSRGSLRVEERPEKDFTEKGSRNMPGLSAATLASLGGTSSRRGSGDTSISIDTEASIREIKELNELKDQIQDVEGKYMQGLKEMKDSLAEVEEKYKKAMVSNAQLDNEKTNFMYQVDTLKDMLLELEEQLAESRRQYEEKNKEFEREKHAHSILQFQFAEVKEALKQREEMLEKHGIILNSEIATNGETSDTLNNVGYQGPTKMTKEELNALKSTGDGTLGRASEVEVKNEIVANVGKREILHNTEKEQHTEDTVKDCVDIEVFPAGENTEDQKSSEDTAPFLGTLAGATYEEQVQSQILESSSLPENTVQVESNEVMGAPDDRTRTPLEPSNCWSDLDGGNHTENVGEAAVTQVEEQAGTVASCPLGHSDDTVYHDDKCMVEVPQELETSTGHSLEKEFTNQEAAEPKEVPAHSTEVGRDHNEEEGEETGLRDEKPIKTEVPGSPAGTEGNCQEATGPSTVDTQNEPLDMKEPDEEKSDQQGEALDSSQKKTKNKKKKNKKKKSPVPVETLKDVKKELTYQNTDLSEIKEEEQVKSTDRKSAVEAQNEVTENPKQKIAAESSENVDCPENPKIKLDGKLDQEGDDVQTAAEEVLADGDTLDFEDDTVQSSGPRAGGEELDEGVAKDNAKIDGATQSSPAEPKSEDADRCTLPEHESPSQDISDACEAESTERCEMSEHPSQTVRKALDSNSLENDDLSAPGREPGHFNPESREDTRGGNEKGKSKEDCTMS
As for B1, the binding result is “binds”.
